The source of these data is US20260232767A1, “INTERLEUKIN-23 RECEPTOR ANTAGONIST PEPTIDES FOR USE IN THE TREATMENT OF PSORIASIS” (Janssen Pharmaceutica NV, priority 2023, published 2026).

Experiment [1] concerns subjects with moderate-to-severe plaque psoriasis. Put plainly: PASI response, Example 1 16-week dose-ranging study. Type of experiment: in vivo, human. To be noted: Week 16. On the procedure: The Psoriasis Area and Severity Index (PASI) is a system used for assessing and grading the severity of psoriatic lesions and their response to therapy. In the PASI system, the body is divided into four regions: the head, trunk, upper extremities, and lower extremities. Each of these areas is assessed and scored separately for erythema, induration, and scaling, which are each rated on a scale of 0 to 4 and extent of involvement on a scale of 0 to 6. The PASI produces a numeric score (a “PASI score”) that can range from 0 to 72. A higher score indicates more severe disease.
This was a randomized, double-blind, placebo-controlled, dose-ranging, parallel group, multicenter, interventional study in subjects with moderate-to-severe plaque psoriasis. A target of 240 subjects were enrolled in this study with 40 subjects planned per intervention group.
Clinician-reported outcomes including Psoriasis Area and Severity Index (PASI), Body Surface Area (BSA), Investigator's Global Assessment (IGA), Nail Psoriasis Area and Severity Index (NAPSI), Fingernail Physician's Global Assessment (f-PGA), Static Physician's Global Assessment of Genitalia (s-PGA-G), Physician's Global Assessment of Hands and/or Feet (hf-PGA), and Scalp Specific Investigator Global Assessment (ss-IGA) were obtained at Week 0, 8, and 16. PASI and IGA were also obtained at Weeks 1, 2, 4, and 12, and at Week 20, four weeks after the administration of the tablets has stopped.
The primary efficacy endpoint was the proportion of participants achieving a PASI 75 response at Week 16, defined as at least a 75% reduction from baseline in PASI total score.
For the primary analysis, composite strategy (non-responder imputation) was applied to address intercurrent event #1 (Discontinuation of study intervention due to lack of efficacy or due to an AE of worsening of psoriasis) and #2 (initiation of a protocol-prohibited medication or therapy that could improve psoriasis); and treatment policy strategy (observed data) was applied to intercurrent event #3 (Discontinuation of study intervention due to other reasons). Participants with missing data after application of ICEs are also considered as non-responders.
In addition to the response analysis, pairwise comparisons of each treatment group versus the placebo group were performed for the primary endpoint of PASI 75 at Week 16. Pairwise comparisons were not adjusted for multiplicity. The Cochran-Mantel-Haenszel chi-square statistic stratified by baseline weight category (≤90 kg, >90 kg) at a 2-sided significance level of 0.05 was used (Table 2).

Experiment [2] has the same test system. The experiment in a line: PASI response, Example 2 long-term extension to Week 52. Type of experiment: in vivo, human. The note with it: 100 mg BID, N=42. The source says: Described below is a multicenter, long-term extension (LTE), double-blind, dose-ranging, parallel group interventional study in participants from Example 1 to evaluate the long-term efficacy and safety of the hydrochloride salt of the compound of Formula (I) for the treatment of moderate-to-severe plaque psoriasis. Patients from Example 1 continued to receive the same dose of the compound of Formula (I) for an additional 36-week treatment period with a 4-week safety follow up period after the last administration of the compound of Formula (I). Patients randomized to placebo in Example 1 received the compound of Formula (I) at a dose of 100 mg QD starting at Week 16 of Example 1 (FIG. 21).
The primary efficacy endpoint is the proportion of participants achieving a PASI 75 response at Week 52, defined as at least a […] reduction from baseline PASI of Example 1. For primary analysis, composite strategy (non-responder imputation) was applied to address intercurrent event #1 (Discontinuation of study intervention due to lack of efficacy or due to an AE of worsening of psoriasis) and […] (initiation of a protocol-prohibited medication or therapy that could improve psoriasis); treatment policy strategy (observed data) was applied to intercurrent event #3 (Discontinuation of study intervention due to other reasons). […]

This continues a long series; more values of the same kind are listed elsewhere.

On to `CC(=O)NCCCC[C@@H]1NC(=O)[C@H](Cc2c[nH]c3c(C)cccc23)NC(=O)[C@H]([C@@H](C)O)NC(=O)[C@H](CC(N)=O)NC(=O)[C@@H](NC(C)=O)C(C)(C)SSC(C)(C)[C@@H](C(=O)N[C@@H](Cc2ccc(OCCN)cc2)C(=O)N[C@@H](Cc2ccc3ccccc3c2)C(=O)NC2(C(=O)N[C@@H](CCC(=O)O)C(=O)N[C@@H](CC(N)=O)C(=O)N[C@@H](Cc3cccnc3)C(=O)N(C)CC(N)=O)CCOCC2)NC1=O` [IL-23 receptor antagonist peptide, Ac-[Pen]*-N-T-[W(7-Me)]-[Lys(Ac)]-[Pen]*-Phe[4-(2-aminoethoxy)]-[2-Nal]-[THP]-E-N-[3-Pal]-Sarc-NH2 (*[Pen]-[Pen]* formdisulfidebond)], for which the “PASI ≥75% Improvement, % subjects” value in experiment [1] (100 mg BID, peak plasma conc. <Q1, N=2) is recorded as “(100.0%)”; in experiment [1] (100 mg BID, peak plasma conc. Q1 to <Q2, N=3), “(100.0%)”; in experiment [1] (100 mg BID, peak plasma conc. Q2 to <Q3, N=2), “(50.0%)”; in experiment [1] (100 mg BID, peak plasma conc. ≥Q3, N=3), “(100.0%)”; in experiment [1] (100 mg QD, peak plasma conc. ≥Q3, N=2) it was “(50.0%)”; in experiment [1] (Combined doses, peak plasma conc. <Q1, N=10) it was “(40.0%)”. Moreover, the “PASI ≥75% Improvement, % subjects” value is listed as “(90.9%)” in experiment [1] (Combined doses, peak plasma conc. Q1 to <Q2, N=11); “(70.0%)” in experiment [1] (Combined doses, peak plasma conc. Q2 to <Q3, N=10); “(72.7%)” in experiment [1] (Combined doses, peak plasma conc. ≥Q3, N=11). Also, in experiment [2], the “PASI ≥90% Improvement, subjects (%)” value was “(64.3%)”.
